From patent US20190218304A1, “POTENTIATING THE EFFECT OF ATP RELEASE” (INNATE PHARMA, priority 2017, published 2019)
Substitutions are numbered along the chain they refer to. Results are given in words; binding and its absence hold for the method and conditions named. Some binding calls cover weakened binding; strength is not graded here.

Experiments:
Test in all cases: flow cytometry on transfected Hek-293T cells
CD39 mutant 13 (human) = biological target: T1, CD39 mutant 13 (human) (UniProt P49961)
T1 sequence: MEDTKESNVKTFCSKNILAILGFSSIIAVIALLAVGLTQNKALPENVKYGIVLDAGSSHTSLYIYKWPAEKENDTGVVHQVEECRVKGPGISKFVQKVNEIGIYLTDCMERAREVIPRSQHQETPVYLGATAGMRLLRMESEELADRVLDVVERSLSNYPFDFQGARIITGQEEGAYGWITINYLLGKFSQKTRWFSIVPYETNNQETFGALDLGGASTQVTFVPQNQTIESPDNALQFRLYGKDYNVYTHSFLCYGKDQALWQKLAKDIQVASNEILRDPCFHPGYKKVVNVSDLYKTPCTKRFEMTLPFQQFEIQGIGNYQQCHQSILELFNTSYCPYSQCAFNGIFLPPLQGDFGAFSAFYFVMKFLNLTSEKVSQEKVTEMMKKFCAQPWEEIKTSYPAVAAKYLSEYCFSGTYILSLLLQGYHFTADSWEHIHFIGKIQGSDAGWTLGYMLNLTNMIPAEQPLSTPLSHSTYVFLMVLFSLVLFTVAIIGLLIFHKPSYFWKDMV

CD39 mutant 9 (human) = biological target: T2, CD39 mutant 9 (human) (UniProt P49961)
T2 sequence: T1 sequence with K288E, K289A, V290A, E315R, P402A, A403G, A405K, A406E

CD39 mutant 1 (human) = biological target: T3, CD39 mutant 1 (human) (UniProt P49961)
T3 sequence: T1 sequence with V77G, H79Q, P402A, A403G, A405K, A406E, Q444K, G445D

CD39 mutant 17 (human) = biological target: T4, CD39 mutant 17 (human) (UniProt P49961)
T4 sequence: T1 sequence with N334A, S336A, Y337G, N346A, P402A, A403G, A405K, A406E

CD39 mutant 7 (human) = biological target: T5, CD39 mutant 7 (human) (UniProt P49961)
T5 sequence: T1 sequence with A273S, N275A, I277S, R279A, P402A, A403G, A405K, A406E

Measured: binding

B1: antibody I-399 (antibody, V domains shown)
VH: PVQLQQPGAEVVMPGASVKLSCKASGYTFTSFWMNWMRQRPGQGLEWIGEIDPSDFYTNSNQRFKGKATLTVDKSSSTAYMQLSSLTSEDSAVYFCARGDFGWYFDVWGTGTSVTVSS
VL: EIVLTQSPTTMTSSPGEKITFTCSASSSINSNYLHWYQQKPGFSPKLLIYRTSNLASGVPTRFSGSGSGTSYSLTIGTMEAEDVATYYCQQGSSLPRTFGGGTKLEIK
binds: all assays above
